Counter-ions that a name gives are not always drawn. In all, about 5,300 compounds went through this assay and about 130 (2.5%) showed an effect of 50% or more. This is one part of the list.
test system: M. mycetomatis strain mm55; settings: primary screen, metabolic activity vs growth control; 96 h, 2 µM; inhibitor

| Compound | % viability [%] |
| --- | --- |
| CC(C)(C)NC(=O)N[C@H](C(=O)N1C[C@H]2[C@@H]([C@H]1C(=O)NC(CC1CCC1)C(=O)C(N)=O)C2(C)C)C(C)(C)C (stereo partly shown) [ONC0001071, boceprevir] | 43.8 |
| CCC(CC)CC1(C(=O)Nc2ccccc2SC(=O)C(C)C)CCCCC1 [ONC0005201, dalcetrapibü¾Œ¶„¼ü¾Ž†„¼jtt705ü¾Œ¶„¼] | 98.31 |
| CN1[C@@H](CC(=O)c2ccccc2)CCC[C@H]1C[C@H](O)c1ccccc1 [ONC0005605, lobeline hydrochloride] | 124.7 |
| Cn1cc(-c2ccc3nnc(C(F)(F)c4ccc5ncccc5c4)n3n2)cn1 [ONC0004892, jnj38877605] | 97.57 |
| c1ccc2[nH]c(-c3cscn3)nc2c1 [ONC0000541, thiabendazole] | 57.17 |
| CNC(=O)O[C@H]1COc2ccc(N3CCN(C4COC4)CC3)cc2[C@@H]1NC(=O)c1ccc(F)cc1 [ONC0000827, ly 3000328] | 94.11 |
| OC[C@@H](O)[C@@H](O[C@@H]1O[C@H](CO)[C@H](O)[C@H](O)[C@H]1O)[C@H](O)[C@@H](O)CO [ONC0004170, dlactitol monohydrate] | 63.72 |
| O=S(=O)(NC1CCNCC1)c1cc(S(=O)(=O)c2ccccc2)ccc1C(F)(F)F [ONC0005407, way 316606] | 95.75 |
| NCCC(=O)N[C@@H](Cc1cnc[nH]1)C(=O)O [ONC0002788, carnosine] | 115.1 |
| OCc1ccc(-c2nn(Cc3ccccc3)c3ccccc23)o1 [ONC0000936, yc1] | 76.91 |
| NC(=O)c1cccnc1 [ONC0004155, niacinamide] | 69.05 |
| Nc1nccs1 [ONC0002889, aminothiazole] | 91.61 |
| CC(C)C[C@H](N)C(=O)O [ONC0005412, lleucine] | 80.97 |
| Cn1c(=O)c2c(ncn2CC(O)CO)n(C)c1=O (stereo not shown) [ONC0000729, dyphylline] | 103.6 |
| CCCc1nc(C(C)(C)O)c(C(=O)OCc2oc(=O)oc2C)n1Cc1ccc(-c2ccccc2-c2nnn[nH]2)cc1 [ONC0003883, olmesartan medoxomil] | 72.02 |
| CCCc1nc(C)c2c(=O)[nH]c(-c3cc(S(=O)(=O)N4CCN(CC)CC4)ccc3OCC)nn12 [ONC0003921, vardenafil hydrochloride] | 67.78 |
| C=C(NC(=O)C(=C)NC(=O)c1csc(C2=N[C@@H]3c4csc(n4)[C@H]4NC(=O)c5csc(n5)[C@H]([C@](C)(O)[C@@H](C)O)NC(=O)[C@H]5CSC(=N5)/C(=C/C)NC(=O)[C@H]([C@@H](C)O)NC(=O)c5csc(n5)[C@]3(CC2)NC(=O)[C@H](C)NC(=O)C(=C)NC(=O)[C@H](C)NC(=O)[C@H]([C@@H](C)CC)N[C@@H]2C=Cc3c([C@H](C)O)cc(nc3[C@H]2O)C(=O)O[C@@H]4C)n1)C(N)=O [ONC0002225, thiostrepton] | 89.5 |

Exported field by field: 2 of the compounds above
CCCc1nc(C)c2c(=O)[nH]c(-c3cc(S(=O)(=O)N4CCN(CC)CC4)ccc3OCC)nn12 [ONC0003921, vardenafil hydrochloride]
  % viability [%]: 67.78
C=C(NC(=O)C(=C)NC(=O)c1csc(C2=N[C@@H]3c4csc(n4)[C@H]4NC(=O)c5csc(n5)[C@H]([C@](C)(O)[C@@H](C)O)NC(=O)[C@H]5CSC(=N5)/C(=C/C)NC(=O)[C@H]([C@@H](C)O)NC(=O)c5csc(n5)[C@]3(CC2)NC(=O)[C@H](C)NC(=O)C(=C)NC(=O)[C@H](C)NC(=O)[C@H]([C@@H](C)CC)N[C@@H]2C=Cc3c([C@H](C)O)cc(nc3[C@H]2O)C(=O)O[C@@H]4C)n1)C(N)=O [ONC0002225, thiostrepton]
  % viability [%]: 89.5

The results go on:

| Compound | % viability [%] |
| --- | --- |
| NCc1c[nH]c(=S)n1[C@H]1CCc2c(F)cc(F)cc2C1 [ONC0000919, nepicastat hydrochloride] | 71.78 |
| O=C(O)CCc1nc2ccccc2[nH]1 [ONC0005334, procodazole] | 117.3 |
| CC(=C(CCO)SSCC1CCCO1)N(C=O)Cc1cnc(C)nc1N (stereo in doubt) [ONC0002347, fursultiamine] | 90.21 |
| C[C@@H]1CC2C3C[C@H](F)C4=CC(=O)C=C[C@]4(C)[C@@]3(F)[C@@H](O)C[C@]2(C)[C@@]1(O)C(=O)COC(=O)C(C)(C)C (stereo partly shown) [ONC0000418, flumethazone pivalate] | 69.31 |
| CCC1C(O)C2C3CCC(C(C)CCC(=O)O)C3(C)CCC2C2(C)CCC(O)CC12 (stereo not shown) [ONC0004436, obeticholic acid] | 127.4 |
| CC(=O)[C@@]1(O)CC[C@H]2[C@@H]3C[C@H](C)C4=CC(=O)CC[C@]4(C)[C@H]3CC[C@@]21C [ONC0001078, medroxyprogesterone] | 90.02 |
| CCCCCCCCCCCCCCCC[N+](C)(C)C [ONC0002897, cetrimonium bromide] | 96.9 |
| O=C(NCc1ccc(Oc2ccccc2)cc1)c1nc(-c2cc(Br)c(O)c(Br)c2)no1 [ONC0004397, iowh 032] | 153.6 |
| Cc1c(Cn2c(C)nc3c(C(=O)O)cc(N4CCOCC4)cc32)cccc1C(F)(F)F [ONC0004425, gsk2636771] | 93.19 |
| CCNC(=O)[C@@H]1CCCN1C(=O)[C@H](CCCNC(=N)N)NC(=O)[C@H](CC(C)C)NC(=O)[C@@H](C)NC(=O)[C@H](Cc1ccc(O)cc1)NC(=O)[C@H](CO)NC(=O)[C@H](Cc1c[nH]c2ccccc12)NC(=O)[C@H](Cc1c[nH]cn1)NC(=O)[C@@H]1CCC(=O)N1 [ONC0002202, alarelin acetate] | 212.3 |
| COc1ccc2nc3[nH]nc(C)c3c(NCCOCCO)c2c1 [ONC0003546, sch51344] | 79.32 |
| Clc1cccc(C(c2ccc3[nH]cnc3c2)n2ccnc2)c1 (stereo not shown) [ONC0001276, liarozole] | 96.95 |
| c1ccc(-c2cnn3cc(-c4ccc(OCCN5CCOCC5)cc4)cnc23)cc1 [ONC0001741, dmh4] | 59.96 |
| O=C(NCNC(=O)NC1C(=O)NC(=O)N1CO)NC1C(=O)NC(=O)N1CO (stereo not shown) [ONC0002906, imidurea] | 53.61 |
| C[C@@]1(O)[C@H](O)[C@@H](CO)O[C@H]1n1cnc2c(NC3CCCC3)nc(Cl)nc21 [ONC0001394, 2meccpa] | 91.96 |
| CC(C)c1onc(-c2c(Cl)cccc2Cl)c1COc1ccc(/C=C/c2cccc(C(=O)O)c2)c(Cl)c1 [ONC0001405, gw4064] | 103.5 |
| CO[C@@H](C)Cn1c(=O)n(C)c2cnc3ccc(-c4cncc(C(C)(C)O)c4)cc3c21 [ONC0001027, ly3023414] | 89.83 |
